Measured values from patent US20130280279A1 (HOFFMANN-LA ROCHE INC., priority 2011, published 2013).
For part of these data: Some peptides are written in HELM: one residue between dots, names in brackets for other building blocks, links after the first $.

How the values were obtained:
[1] = general procedure: Fmoc solid-phase peptide synthesis; TentaGel RAM resin (loading: 0.18 mmol/g; Rapp Polymers, Germany); HBTU/HOBt, DIPEA; details: conjugation step
[2] = general procedure: Fmoc solid-phase peptide synthesis; TentaGel RAM; HBTU/HOBt, DIPEA; details: whole synthesis, scale 0.25 mmol

Substance	conjugation yield [1] [%]	crude mass [2] [mg]	crude yield [2] [%]
PEPTIDE1{[ac].I.K.[Pqa].R.H.Y.L.N.W.V.T.R.Q.[NMeArg].Y.[am]}|PEPTIDE2{[DigCME].[TEG]}$PEPTIDE1,PEPTIDE2,3:R3-2:R2$$$V2.0	25		
Ac-IK-Pqa-RHYLNWVTRQ(N-methyl)RY		337	55
